According to the supplement of paper PMC7824004:
Some of the results follow. The data scatter; read single values as rough.

Each compound was assayed on Candida albicans SN425 (assay: biofilm OD600 B-score; higher = more biofilm (less inhibition)). Settings: 10 µM; assay detail: High-throughput adherence inhibition optical density biofilm assay with C. albicans SN425 in RPMI-1640/MOPS pH 7.0, 384-well plates. ….
Experimental: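 High-throughput adherence inhibition optical density biofilm assay with C. albicans SN425 in RPMI-1640/MOPS pH 7.0, 384-well plates. Compound (10 µM) was present only during the 90 min adherence step, then washed out, and the biofilm grew 24 h without compound. Biofilm was read as OD600 after removing the media. Scores are the difference from the mean in standard deviations and the plate B-score.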

SMILES	biofilm OD600 B-score
COc1ccccc1C(=O)NCCN1CCOCC1	-0.0511
O=C(O)c1ccccc1-c1ccccc1C(=O)Nc1ccccc1	0.246
CN1CCC(N(C)Cc2cccs2)CC1	0.0175
COc1ccccc1CC(=O)NCc1ccccc1Cl	-1.53
CCOc1ccccc1NS(=O)(=O)c1ccc(SC)cc1	0.361
CCC(C)(C)C(=O)NCc1cccnc1	0.906
COc1cc(Cl)c(S(=O)(=O)n2nc(C)cc2C)cc1Cl	0.567
CCCOc1cccc(C(=O)Nc2ccc(OC)cc2OC)c1	-0.234
CC(=O)Nc1ccc(CN2CCN(c3ccc(Cl)cc3)CC2)cc1	-0.752
O=[N+]([O-])c1ccccc1/C=C/CN1CCCCC1CO (stereo not drawn)	-0.17
COc1cccc(NC(=O)CSc2nc(C)cc(C)n2)c1	0.0198
COc1ccccc1N1CCN(CCC(=O)NN)CC1	-0.0843
O=S(=O)(NCCCN1CCOCC1)c1ccc(I)cc1	0.124
CC(O)CNC(=O)C(=O)Nc1ccccc1Cl (stereo not drawn)	-0.669
COc1ccc(OCC(O)CN2CCc3ccccc3C2)cc1 (stereo not drawn)	1.99
CC(C)=CCCC(C)CN1CCC(O)CC1 (stereo not drawn)	-1.69
Cc1occc1C(=O)Nc1ccc(CC(=O)O)cc1	-1.73
CC(=O)NCCc1ccc(S(=O)(=O)N(C)C)cc1	0.702
NC(=O)c1ccccc1NC(=O)CC1CCCCC1	0.167
OCCN1CCN(CC2CC=CCC2)CC1 (stereo not drawn)	-0.629
Cc1ccc(NC(=O)Cn2c(C)nc3ccccc32)cc1	-0.329
Cc1ccc(NC(=O)c2ccc(NCCN)c([N+](=O)[O-])c2)cc1	-0.503
CCSc1nnc(NC(=O)NC2CCCCC2)s1	0.126

Three entries out of the list, sorted by count of non-hydrogen atoms, ascending:
SMILES	biofilm OD600 B-score
CCOc1ccccc1NS(=O)(=O)c1ccc(SC)cc1	0.361
COc1ccc(OCC(O)CN2CCc3ccccc3C2)cc1 (stereo not drawn)	1.99
CC(=O)Nc1ccc(CN2CCN(c3ccc(Cl)cc3)CC2)cc1	-0.752
